Results published in patent US20230220416A1, “NOVEL TR[…] AND USES THEREOF” (priority 2020, published 2023).
At least one compound was matched to its structure with a doubt left.

Tested on: target cell
Type: cell-based
Conditions: for suitability of approved therapeutic compounds as transduction enhancers (result in words): no concentration stated
Source text: The efficiency of a transduction experiment may be determined as known in the art. Preferably, transduction efficiency may be measured by determining the vector copy number (VCN) in a single cell after a transduction experiment or by measuring the average VCN in a population of cells after a transduction experiment. “Vector copy number” or “VCN” refers to the number of copies of a vector, or portion thereof, in a cell's genome. The average VCN may be determined from a population of cells or from individual cell colonies. Exemplary methods for determining VCN include any form of polymerase chain reaction (PCR), such as qPCR or digital droplet PCR, and flow cytometry. […] 479-487 or as described in Examples 1 or 5.
Several transduction enhancers and combinations of transduction enhancers reported herein result in an increase in transduction efficiency. An “increase in transduction efficiency” refers to an increase in VCN upon transduction of a cell population by a gene therapy vector in presence of a transduction enhancer compared to the absence of a transduction enhancer.

Compound	transduction efficiency of a target cell, single enhancer (result in words) (Amphotericin B 0.5-1 μg/mL, Silibinin 1 to 5 μM, Midostaurin 100 to 400 nM, Nystatin 100 μM, Natamycin 3 μM, Everolimus 1 μM, deoxyribonucleosides 0.3-2.5 mM, PEG-PLA-PEG 10 μg/mL, PEG-PCL-PEG 10 μg/mL, Resveratrol 5 μM, Prostaglandin E2 10 μM, Poloxamer synperonic F108 0.5-2 mg/mL, DMSO 1% (v/v), protamine salts 4 μg/mL)	suitability of approved therapeutic compounds as transduction enhancers (result in words)
CO[C@@H]1[C@H](N(C)C(=O)c2ccccc2)C[C@H]2O[C@]1(C)n1c3ccccc3c3c4c(c5c6ccccc6n2c5c31)C(=O)NC4 [Midostaurin]	enhances the transduction efficiency	efficient transduction enhancers
N#CC[C@H](C1CCCC1)n1cc(-c2ncnc3[nH]ccc23)cn1 [Ruxolitinib]		efficient transduction enhancers
